In paper PMC6291157:
No constants are given. Whether binding was seen depends on the method and setting. Binding seen in cells or lysates may run through a third protein. Some results given as binding are weak or reduced against the parent protein; the word gives no strength. For some of these results: Where a sequence is shown, tags or fusion partners need not be part of it.

Chains of the proteins cited; added tags and fusions are not shown.
UniProt Q13200: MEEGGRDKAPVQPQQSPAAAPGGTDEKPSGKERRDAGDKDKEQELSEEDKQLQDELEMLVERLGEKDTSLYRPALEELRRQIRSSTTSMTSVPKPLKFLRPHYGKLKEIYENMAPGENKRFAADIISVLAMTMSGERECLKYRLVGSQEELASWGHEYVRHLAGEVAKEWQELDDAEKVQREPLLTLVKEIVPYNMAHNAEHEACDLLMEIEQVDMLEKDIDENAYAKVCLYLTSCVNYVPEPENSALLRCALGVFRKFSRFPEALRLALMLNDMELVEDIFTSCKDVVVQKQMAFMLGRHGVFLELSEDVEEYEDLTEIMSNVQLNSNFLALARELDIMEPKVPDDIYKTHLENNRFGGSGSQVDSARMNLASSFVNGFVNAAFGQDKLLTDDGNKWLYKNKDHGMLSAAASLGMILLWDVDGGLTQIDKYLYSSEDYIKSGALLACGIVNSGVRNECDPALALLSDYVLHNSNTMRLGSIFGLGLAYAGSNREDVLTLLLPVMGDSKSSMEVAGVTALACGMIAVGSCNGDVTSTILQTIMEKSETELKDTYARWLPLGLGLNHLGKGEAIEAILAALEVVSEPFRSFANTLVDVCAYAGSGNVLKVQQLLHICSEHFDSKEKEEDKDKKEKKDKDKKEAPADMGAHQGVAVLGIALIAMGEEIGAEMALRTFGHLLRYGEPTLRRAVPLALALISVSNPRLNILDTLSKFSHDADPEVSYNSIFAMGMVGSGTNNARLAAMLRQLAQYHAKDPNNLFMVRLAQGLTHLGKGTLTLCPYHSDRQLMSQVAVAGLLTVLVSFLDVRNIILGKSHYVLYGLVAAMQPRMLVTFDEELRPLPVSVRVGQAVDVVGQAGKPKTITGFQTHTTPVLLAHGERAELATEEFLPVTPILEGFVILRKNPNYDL
UniProt Q8N371: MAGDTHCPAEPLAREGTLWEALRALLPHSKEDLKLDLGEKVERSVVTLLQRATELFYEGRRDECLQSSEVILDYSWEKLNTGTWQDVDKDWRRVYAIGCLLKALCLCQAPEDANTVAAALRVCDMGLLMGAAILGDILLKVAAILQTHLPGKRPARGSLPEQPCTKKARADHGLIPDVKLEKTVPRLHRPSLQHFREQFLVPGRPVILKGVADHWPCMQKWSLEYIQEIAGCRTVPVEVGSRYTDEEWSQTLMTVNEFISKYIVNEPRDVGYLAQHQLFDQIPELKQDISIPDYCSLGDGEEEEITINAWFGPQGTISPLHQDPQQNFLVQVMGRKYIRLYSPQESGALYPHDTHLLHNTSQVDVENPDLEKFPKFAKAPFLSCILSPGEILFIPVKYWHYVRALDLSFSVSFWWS

Tests used:
[1] = target: T1, V5-FBXL3 (F-box/leucine-rich repeat protein 3) (UniProt Q9UKT7); assay: co-IP; HEK293T cotransfected with FLAG-CRY1, HA-JMJD5, V5-FBXL3 and shRNA against CRY1; which protein was precipitated is not told
T1 sequence: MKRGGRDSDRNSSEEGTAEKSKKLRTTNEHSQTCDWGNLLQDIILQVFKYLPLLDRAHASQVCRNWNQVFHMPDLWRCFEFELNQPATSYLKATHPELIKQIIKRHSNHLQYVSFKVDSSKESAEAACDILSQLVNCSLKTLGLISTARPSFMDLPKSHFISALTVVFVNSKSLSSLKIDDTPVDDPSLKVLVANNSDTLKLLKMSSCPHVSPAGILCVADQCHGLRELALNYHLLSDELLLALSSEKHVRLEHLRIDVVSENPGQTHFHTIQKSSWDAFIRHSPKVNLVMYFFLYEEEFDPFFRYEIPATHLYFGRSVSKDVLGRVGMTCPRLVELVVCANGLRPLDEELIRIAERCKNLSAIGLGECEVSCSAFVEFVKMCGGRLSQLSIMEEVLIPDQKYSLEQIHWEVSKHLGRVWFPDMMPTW

[2] = target: T2, FLAG-CRY2 (CRYPTOCHROME 2) (UniProt Q9R194); assay: co-IP; HEK293T cotransfected (1.5 ug V5-FBXL3, 400 ng FLAG-CRY1, 600 ng HA-JMJD5); lysis in 200 mM NaCl, 50 mM Tris-HCl, 1% TX-100, 1% NP-40; FLAG-tagged CRY precipitated on M2 FLAG magnetic beads overnight at 4 °C, eluted with 3X FLAG peptide, immunoblot; with or without coexpressed FBXL3; also with shRNA against FBXL3 or siRNA against JMJD5
T2 sequence: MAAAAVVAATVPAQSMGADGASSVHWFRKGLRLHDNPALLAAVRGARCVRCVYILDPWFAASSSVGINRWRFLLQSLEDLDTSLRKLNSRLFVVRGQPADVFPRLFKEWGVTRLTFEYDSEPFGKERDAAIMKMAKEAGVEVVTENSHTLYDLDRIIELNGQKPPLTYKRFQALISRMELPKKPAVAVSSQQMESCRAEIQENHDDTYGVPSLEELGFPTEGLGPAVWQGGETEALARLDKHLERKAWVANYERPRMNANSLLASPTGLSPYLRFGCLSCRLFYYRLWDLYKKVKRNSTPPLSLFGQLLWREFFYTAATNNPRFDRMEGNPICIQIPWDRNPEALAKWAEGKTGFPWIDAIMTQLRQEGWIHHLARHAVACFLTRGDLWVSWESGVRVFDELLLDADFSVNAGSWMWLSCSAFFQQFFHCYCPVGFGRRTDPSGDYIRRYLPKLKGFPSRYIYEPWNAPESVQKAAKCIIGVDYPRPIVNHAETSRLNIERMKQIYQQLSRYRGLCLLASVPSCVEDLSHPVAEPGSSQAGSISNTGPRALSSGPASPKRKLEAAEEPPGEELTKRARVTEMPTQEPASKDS

[3] = target: T3, FLAG-CRY1 (CRYPTOCHROME 1, wild type) (UniProt P97784); assay: as above
T3 sequence: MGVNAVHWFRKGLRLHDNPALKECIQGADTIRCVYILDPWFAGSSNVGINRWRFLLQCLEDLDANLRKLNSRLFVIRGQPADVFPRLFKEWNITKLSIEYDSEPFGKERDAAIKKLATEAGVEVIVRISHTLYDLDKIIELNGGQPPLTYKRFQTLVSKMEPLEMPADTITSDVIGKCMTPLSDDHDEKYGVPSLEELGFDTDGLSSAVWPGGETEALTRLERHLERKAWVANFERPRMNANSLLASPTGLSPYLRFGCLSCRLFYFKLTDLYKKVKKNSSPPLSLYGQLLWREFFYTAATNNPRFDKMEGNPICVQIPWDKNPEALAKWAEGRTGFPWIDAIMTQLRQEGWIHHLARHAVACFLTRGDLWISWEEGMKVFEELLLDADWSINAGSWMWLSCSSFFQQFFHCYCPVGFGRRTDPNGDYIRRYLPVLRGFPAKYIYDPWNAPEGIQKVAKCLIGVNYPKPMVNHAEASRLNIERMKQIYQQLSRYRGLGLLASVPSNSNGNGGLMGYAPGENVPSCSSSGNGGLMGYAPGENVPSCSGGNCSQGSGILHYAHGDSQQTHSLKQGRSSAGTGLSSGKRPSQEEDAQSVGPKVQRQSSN

[4] = target: HA-RPN1 (19S proteasome regulatory particle non-ATPase 1) (UniProt Q13200); assay: co-IP; Jmjd5+/+ and Jmjd5-/- MEFs transfected with HA-RPN1; lysis in 400 mM NaCl, 50 mM Tris-HCl, 1% TX-100, 0.25% sodium deoxycholate; anti-HA antibody on protein G beads, 1 hour at 4 °C; blot for endogenous CRY1

“HA-JMJD5 (JmjC domain-containing protein 5) (from UniProt Q8N371 1-416)” was tested, and the binding [1] was “binds” and the binding [2] was “no binding”.

B1: V5-FBXL3 (F-box/leucine-rich repeat protein 3) (protein, UniProt Q9UKT7 1-428)
chain: T1 sequence
With B1 the binding [3] was “binds”.

B2: endogenous CRY1 (CRYPTOCHROME 1) of mouse embryo fibroblasts (protein, UniProt P97784 1-606)
chain: T3 sequence
With B2 the binding [4] was “binds”.
